From US20170081386A1 (APOGENIX, published 2017)
Numbering of substitutions follows the chain as printed. Results are given in words; binding and its absence hold for the method and conditions named. Some results given as binding are weak or reduced against the parent protein; the word gives no strength. For part of these data: Sequences can lack the tags named with a protein. One block for each binder: values may come before it.

Protein sequences, listed by entry. Tags and fused reporters are not part of them. Residues count along the entry.
UniProt O14763, residues 54-182: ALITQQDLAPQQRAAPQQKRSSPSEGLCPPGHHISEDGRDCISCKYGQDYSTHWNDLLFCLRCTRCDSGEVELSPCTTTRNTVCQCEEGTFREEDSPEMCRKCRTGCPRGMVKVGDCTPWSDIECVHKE
UniProt Q92956, residues 39-202: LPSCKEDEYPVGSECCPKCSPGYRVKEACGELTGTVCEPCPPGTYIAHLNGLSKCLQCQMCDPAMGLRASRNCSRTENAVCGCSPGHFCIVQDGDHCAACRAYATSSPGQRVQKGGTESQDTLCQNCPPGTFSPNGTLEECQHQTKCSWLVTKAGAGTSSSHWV

Columns and labels:
[1] = target: TRAIL-Receptor 2-Fc (R&D Systems) (UniProt O14763); test: Streptactin-ELISA (FIG. 14B), supernatant immobilized, constant concentration of TRAIL-Receptor 2-Fc
[2] = target: T1, TRAIL-Receptor 1-Fc (R&D Systems) (UniProt O00220); test: Streptactin-ELISA (FIG. 14A), supernatant immobilized, constant concentration of TRAIL-Receptor 1-Fc
T1 sequence (looked up): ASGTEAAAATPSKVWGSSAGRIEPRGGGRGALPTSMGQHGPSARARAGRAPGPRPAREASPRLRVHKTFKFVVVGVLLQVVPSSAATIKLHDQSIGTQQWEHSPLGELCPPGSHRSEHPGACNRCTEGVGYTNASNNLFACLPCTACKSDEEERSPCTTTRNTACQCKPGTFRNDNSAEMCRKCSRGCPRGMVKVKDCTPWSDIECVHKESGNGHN

[3] = target: HVEM-Fc (R&D Systems) (UniProt Q92956); test: Streptactin-ELISA, 0-10 microgram/ml LIGHT-ASPD immobilized, 100 ng/ml HVEM-Fc
[4] = target: HVEM-Fc (R&D Systems) (UniProt Q92956); test: Streptactin-ELISA (FIG. 6 legend)
[5] = target: T1, TRAIL-Receptor 1-Fc (R&D Systems); test: Streptactin-ELISA (FIG. 14C), supernatant immobilized, varying concentrations of TRAIL-Receptor 1-Fc
[6] = target: T1, TRAIL-Receptor 1-Fc (R&D Systems); test: Streptactin-ELISA (FIG. 15A), 1 microgram/ml purified trimeric ligand immobilized, TRAIL-Receptor 1-Fc detection
[7] = target: TRAIL-Receptor 2-Fc (R&D Systems) (UniProt O14763); test: Streptactin-ELISA (FIG. 14D), supernatant immobilized, varying concentrations of TRAIL-Receptor 2-Fc
[8] = target: TRAIL-Receptor 2-Fc (R&D Systems) (UniProt O14763); test: Streptactin-ELISA (FIG. 15B), 1 microgram/ml purified trimeric ligand immobilized, TRAIL-Receptor 2-Fc detection
[9] = target: T2, TACl-Fc (R&D Systems) (UniProt O14836); test: Streptactin-ELISA, APRIL-ASPD supernatant immobilized, varying concentrations of TACl-Fc, anti-human Fc-peroxidase detection
T2 sequence (looked up): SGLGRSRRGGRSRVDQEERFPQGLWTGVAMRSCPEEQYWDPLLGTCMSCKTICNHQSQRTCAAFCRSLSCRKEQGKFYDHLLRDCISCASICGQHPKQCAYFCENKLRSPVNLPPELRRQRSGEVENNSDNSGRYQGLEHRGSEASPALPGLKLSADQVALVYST

[10] = target: T2, TACl-Fc (R&D Systems); test: Streptactin-ELISA (FIG. 34 legend)

binding [1]: binds | binding [2]: binds
B1: TRAILR1mut-A-CCSPD (ligand)
chain: QRVAAHITGTRGRSNTLSSPNSKNEKALGRKINSWESSRSGHSFLSNLHLRNGELVIHEKGFYYIYSQTAFRFSEEIKEVTRNDKQMVQYIYKWTDYPDPILLMKSARNSCWSKDAEYGLYSIYQGGIFELKENDRIFVSVTNEHLIDMDHEASFFGAFLVGSSGSSGSSGSGLPDVASLRQQVEALQGQVQHLQAAFSQYKKVELFPNGPSSSSSSAWSHPQFEK

binding [1]: binds
B2: TRAILR2mut-A-CCSPD (ligand)
chain: B1 chain with A70Q, R72K, S74R, V80N, R82K, W94Y, D96S, H145R, I147L, D148Q
notes: it is assembled from the construct description; also called TRAILR2mut (member of the SPD variants)

binding [3]: binds | binding [4]: binds
B3: LIGHT-ASPD (ligand)
chain: EVNPAAHLTGANSSLTGSGGPLLWETQLGLAFLRGLSYHDGALVVTKAGYYYIYSKVQLGGVGCPLGLASTITHGLYKRTPRYPEELELLVSQQSPCGRATSSSRVWWDSSFLGGVVHLEAGEEVVVRVLDERLVRLRDGTRSYFGAFMVGSSGSSGSSGSGLPDVASLRQQVEALQGQVQHLQAAFSQYKKVELFPNGQSVGEKIFKTAGFVKPFTEAQLLCTQAGGQLASPRSAAENAALQQLVVAKNEAAFLSMTDSKTEGKFTYPTGESLVYSNWAPGEPNDDGGSEDCVEIFTNGKWNDRACGEKRLVVCEFGGSPSSSSSSAWSHPQFEK
notes: also called Sp-LIGHT-ASPD; LIGHT fusion protein

binding [1]: binds | binding [2]: binds
B4: TRAILR1mut-D-SPD (ligand)
chain: QRVAAHITGTRGRSNTLSSPNSKNEKALGRKINSWESSRSGHSFLSNLHLRNGELVIHEKGFYYIYSQTAFRFSEEIKEVTRNDKQMVQYIYKWTDYPDPILLMKSARNSCWSKDAEYGLYSIYQGGIFELKENDRIFVSVTNEHLIDMDHEASFFGAFLVGSGLPDVASLRQQVEALQGQVQHLQAAFSQYKKVELFPNGQSVGEKIFKTAGFVKPFTEAQLLCTQAGGQLASPRSAAENAALQQLVVAKNEAAFLSMTDSKTEGKFTYPTGESLVYSNWAPGEPNDDGGSEDCVEIFTNGKWNDRACGEKRLVVCEFGGSPSSSSSSAWSHPQFEK

binding [1]: binds
B5: TRAILR2mut-D-SPD (ligand)
chain: B4 chain with A70Q, R72K, S74R, V80N, R82K, W94Y, D96S, H145R, I147L, D148Q
notes: as for B2

binding [5]: binds | binding [1]: binds | binding [2]: binds | binding [6]: binds | binding [7]: binds
B6: TRAILR1mut-ASPD (ligand)
chain: QRVAAHITGTRGRSNTLSSPNSKNEKALGRKINSWESSRSGHSFLSNLHLRNGELVIHEKGFYYIYSQTAFRFSEEIKEVTRNDKQMVQYIYKWTDYPDPILLMKSARNSCWSKDAEYGLYSIYQGGIFELKENDRIFVSVTNEHLIDMDHEASFFGAFLVGSSGSSGSSGSGLPDVASLRQQVEALQGQVQHLQAAFSQYKKVELFPNGQSVGEKIFKTAGFVKPFTEAQLLCTQAGGQLASPRSAAENAALQQLVVAKNEAAFLSMTDSKTEGKFTYPTGESLVYSNWAPGEPNDDGGSEDCVEIFTNGKWNDRACGEKRLVVCEFGGSPSSSSSSAWSHPQFEK

binding [1]: binds | binding [7]: binds | binding [8]: binds
B7: TRAILR2mut-ASPD (ligand)
chain: B6 chain with A70Q, R72K, S74R, V80N, R82K, W94Y, D96S, H145R, I147L, D148Q
notes: TRAIL-Receptor 2 selective mutein; homotrimer by SEC; also called Sp-TRAILR2mut-ASPD

binding [9]: binds | binding [10]: binds
B8: APRIL-ASPD (ligand)
chain: KQHSVLHLVPINATSKDDSDVTEVMWQPALRRGRGLQAQGYGVRIQDAGVYLLYSQVLFQDVTFTMGQVVSREGQGRQETLFRCIRSMPSHPDRAYNSCYSAGVFHLHQGDILSVIIPRARAKLNLSPHGTFLGFVKLGSSGSSGSSGSGLPDVASLRQQVEALQGQVQHLQAAFSQYKKVELFPNGQSVGEKIFKTAGFVKPFTEAQLLCTQAGGQLASPRSAAENAALQQLVVAKNEAAFLSMTDSKTEGKFTYPTGESLVYSNWAPGEPNDDGGSEDCVEIFTNGKWNDRACGEKRLVVCEFGGSPSSSSSSAWSHPQFEK

binding [1]: binds
B9: TRAILR2mut-D-CCSPD (ligand)
chain: QRVAAHITGTRGRSNTLSSPNSKNEKALGRKINSWESSRSGHSFLSNLHLRNGELVIHEKGFYYIYSQTQFKFREEIKENTKNDKQMVQYIYKYTSYPDPILLMKSARNSCWSKDAEYGLYSIYQGGIFELKENDRIFVSVTNERLLQMDHEASFFGAFLVGSGLPDVASLRQQVEALQGQVQHLQAAFSQYKKVELFPNGPSSSSSSAWSHPQFEK
notes: as for B2

binding [1]: binds | binding [2]: binds
B10: TRAILR1mut-D-CCSPD (ligand)
chain: B9 chain with Q70A, K72R, R74S, N80V, K82R, Y94W, S96D, R145H, L147I, Q148D
